For this experiment, the system named is A/PuertoRico/8/1934 (H1N1) virus. The experiment in a line: microbe, parasite or virus in culture. Format: cell-based. The settings on record: Influenza A virus, H1N1, U-937, 48 h, read-out: NA Inhibition (%).

Drawing on paper PMC12069340 (Frontiers in Cellular and Infection Microbiology, 2025), this text covers inhibition for 1 compound.

As a reminder, the inhibition is the change of the read-out against control, counted positive when it falls. `CN1CC2c3ccccc3Oc3ccc(Cl)cc3C2C1` (stereo not shown) [Asenapine]: the inhibition at 20 µM is 0.2%.
